The text below walks through data of paper PMC11641346.

The experiment has as its target TaBZR2.1 (BD-TaBZR2.1 bait) (wheat (Triticum aestivum)). The experiment in a line: two-hybrid; Matchmaker Gold system; pGBKT7-TaBZR2.1 bait and pGADT7-AGO4 prey co-transformed into Y2H-gold; plated on DDO (SD/-Leu/-Trp) and QDO (SD/-Ade/-His/-Leu/-Trp) with ABA (125 ng/mL).

These are yes or no findings as the source states them, for the method shown. A result given as binding can be weak or reduced; the word gives no strength.

As to “Argonaute 4 (AD-AGO4 prey) (from UniProt A0A1D5VIV1)”, the binding entry is on record as “binds”.
